From publication PMC11142380
These are yes or no findings as the source states them, for the method shown. In cells and extracts the contact can be indirect. Sequences can lack the tags named with a protein.

Target: T1, FAD8–YFP–HA (fatty acid desaturase 8 fused to the YFP and HA tags) (Arabidopsis thaliana) (UniProt P48622)
T1 sequence: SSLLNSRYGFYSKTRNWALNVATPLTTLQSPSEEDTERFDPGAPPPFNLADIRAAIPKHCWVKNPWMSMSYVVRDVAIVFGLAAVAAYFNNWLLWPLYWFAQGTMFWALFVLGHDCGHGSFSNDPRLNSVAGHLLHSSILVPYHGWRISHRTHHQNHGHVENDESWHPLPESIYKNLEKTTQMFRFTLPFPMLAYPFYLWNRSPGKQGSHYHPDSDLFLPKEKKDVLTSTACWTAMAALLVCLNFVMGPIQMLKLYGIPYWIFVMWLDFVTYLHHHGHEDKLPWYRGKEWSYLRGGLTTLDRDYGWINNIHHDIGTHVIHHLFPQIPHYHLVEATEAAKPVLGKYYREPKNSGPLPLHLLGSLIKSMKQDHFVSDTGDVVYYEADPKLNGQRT
Test: co-IP; membrane fractions (~840 µg) of leaves fixed with 1% formaldehyde, solubilised in 1% digitonin and 1% n-dodecyl-β-D-maltoside; anti-HA magnetic beads, 4 °C, 1.5 h; eluate immunoblotted with anti-HA, anti-2-Cys Prxs and anti-CHL27; WT plants as control

B1: COPPER RESPONSE DEFECT 1 (CHL27) (protein, UniProt Q9M591 37-409)
chain: MSASSSPPPPTTATSKSKKGTKKEIQESLLTPRFYTTDFEEMEQLFNTEINKNLNEAEFEALLQEFKTDYNQTHFVRNKEFKEAADKLQGPLRQIFVEFLERSCTAEFSGFLLYKELGRRLKKTNPVVAEIFSLMSRDEARHAGFLNKGLSDFNLALDLGFLTKARKYTFFKPKFIFYATYLSEKIGYWRYITIYRHLKENPEFQCYPIFKYFENWCQDENRHGDFFSALMKAQPQFLNDWQAKLWSRFFCLSVYVTMYLNDCQRTNFYEGIGLNTKEFDMHVIIETNRTTARIFPAVLDVENPEFKRKLDRMVVSYEKLLAIGETDDASFIKTLKRIPLVTSLASEILAAYLMPPVESGSVDFAEFEPNLVY
binding: no binding
